PubChem BioAssay AID504764 | Drosophila RNAi Screening Center, 2011
Assay: 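Knock-downs that raise or lower a Notch target reporter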 (primary screen). Cell system: Drosophila Kc167 cells. Reagents: long dsRNA against Drosophila genes. Timing: about 5 days (4 days dsRNA, then 24 h after transfection). Challenge: transfection of constitutively active membrane-tethered Notch lacking the extracellular domain, read 24 h later. Measured: 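Light from a Notch-responsive E(spl)m3 luciferase reporter under active Notch, with control-promoter and no-Notch reporter wells to normalise; raw counts from paired wells a and b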. Scale: induced reporter light, run 1, well a and induced reporter light, run 1, well b: higher = more light from the Notch target reporter with active Notch; control promoter light, run 1, well a and control promoter light, run 1, well b: higher = more light from the viral control promoter (cell number, transfection, viability); uninduced reporter light, run 1, well a: higher = more light from the Notch target reporter without active Notch. Rule for the call: 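Hit if the duplicate-averaged log2 ratio of induced to control-promoter light gives a plate-wise z beyond ±2, or induced to uninduced beyond ±1.8; weak-control or discordant-duplicate wells dropped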. Calls: active = modifier hit (raised or lowered Notch signal); inactive = not a hit.
In all, the deposit lists about 22,000 reagents; shown is an unselected part of those that have a named target and a result. Over the whole deposit, 403 (1.9%) were called active. 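Unnormalised raw counts per well; ratio z-scores behind the hit calls and whether each hit raises or lowers signal are not deposited.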 Names joined by + are all predicted targets of the reagent. Not given: the amount of reagent.

no.	gene knocked down	amplicon	induced reporter light, run 1, well a	induced reporter light, run 1, well b	control promoter light, run 1, well a	control promoter light, run 1, well b	uninduced reporter light, run 1, well a	Outcome
1	scf	DRSC08735	1.25e5	1.10e5	1.74e5	1.74e5	7285	inactive
2	CG42699	DRSC18076	1.99e5	1.74e5	2.61e5	2.13e5	13960	inactive
3	CG42699	DRSC18341	1.50e5	1.54e5	1.97e5	2.13e5	10820	inactive
4	Pgcl	DRSC18815	1.29e5	1.58e5	2.31e5	3.10e5	13442	inactive
5	CalpA	DRSC07352	1.24e5	89555	1.19e5	1.10e5	8200	inactive
6	CR31700	DRSC03682	92470	68070	64255	96355	7960	inactive
7	CG40282 (retired record)	DRSC07814	99370	1.25e5	2.18e5	1.93e5	7878	inactive
8	Met75Ca + Met75Cb	DRSC09549	1.82e5	1.39e5	1.85e5	2.14e5	14965	inactive
9	Met75Ca + Met75Cb	DRSC11221	2.05e5	2.70e5	2.59e5	2.06e5	7940	inactive
10	E23	DRSC00425	6290	5970	7710	6675	3205	inactive
11	E23	DRSC00593	2.54e5	2.54e5	2.29e5	2.20e5	12478	inactive
12	Scamp	DRSC20286	70515	68265	65110	58245	9855	inactive
13	egr	DRSC06233	1.74e5	1.90e5	2.23e5	1.82e5	16850	inactive
14	wol	DRSC03077	70200	96585	58685	67760	5455	inactive
15	Zwilch	DRSC15376	1.54e5	1.40e5	1.99e5	2.04e5	12580	inactive
16	CG15080	DRSC06511	86070	95755	1.38e5	1.40e5	10030	inactive
17	CG8654	DRSC07231	90165	1.15e5	1.72e5	1.53e5	10342	inactive
18	CG10591	DRSC09748	80830	84840	97120	35970	8885	inactive
19	CG13026	DRSC09906	2.49e5	1.99e5	2.40e5	2.21e5	8470	inactive
20	CG6296	DRSC16013	1.69e5	1.68e5	2.46e5	2.18e5	11975	inactive
21	ImpE2	DRSC08665	1.18e5	1.07e5	80175	19460	9440	inactive
22	comm3	DRSC09993	1.50e5	1.69e5	1.55e5	1.95e5	6405	inactive
23	comm3	DRSC09994	1.51e5	1.85e5	2.20e5	1.84e5	8470	inactive
24	comm3	DRSC09995	1.29e5	1.27e5	1.77e5	1.63e5	7925	inactive
25	Chi	DRSC04602	1.60e5	1.55e5	1.32e5	1.64e5	13165	inactive
26	Ir92a	DRSC15111	1.93e5	1.62e5	2.29e5	2.01e5	13045	inactive
27	Reepl1	DRSC19418	1.43e5	1.25e5	2.16e5	1.75e5	9195	inactive
28	CG42685	DRSC01971	1.29e5	1.66e5	1.56e5	1.29e5	16945	inactive
29	Vha100-2	DRSC14152	2.08e5	2.06e5	2.34e5	2.52e5	18820	inactive
30	Nup75	DRSC06947	43890	53180	69445	86270	3670	inactive
31	piwi	DRSC03592	2.37e5	2.96e5	1.87e5	2.38e5	20610	inactive
32	CG42588	DRSC09820	1.45e5	1.40e5	1.66e5	1.15e5	6890	inactive
33	sov	DRSC17930	1.84e5	1.52e5	2.90e5	2.28e5	14632	inactive
34	CG10477	DRSC09732	2.64e5	2.30e5	2.58e5	2.69e5	10900	inactive
35	CG7135	DRSC20026	99610	88680	1.19e5	1.06e5	9955	inactive
36	Jon25Bi	DRSC03434	59660	59530	65950	58605	4545	inactive
37	CG31038	DRSC15051	1.48e5	1.46e5	1.81e5	1.90e5	9310	inactive
38	CG31038	DRSC16326	1.28e5	1.34e5	2.08e5	1.92e5	14805	inactive
39	CG31038	DRSC16327	1.01e5	1.04e5	1.48e5	1.62e5	7950	inactive
40	Myo95E	DRSC15821	1.90e5	1.87e5	2.05e5	1.98e5	16935	inactive
41	CG14411	DRSC19597	76065	85655	85955	96325	13145	inactive
42	raskol	DRSC19202	99360	85370	82690	1.09e5	6345	inactive
43	raskol	DRSC19731	72625	85760	84005	84160	11155	inactive
44	raskol	DRSC19964	94110	64370	83175	87725	9550	inactive
45	raskol	DRSC19967	2710	2370	3065	2815	2200	inactive
46	CG13587	DRSC04223	1.16e5	1.30e5	1.19e5	1.08e5	8305	inactive
47	CG15553	DRSC15091	1.06e5	1.36e5	1.45e5	1.55e5	10395	inactive
48	Gr43a	DRSC06658	2.25e5	1.60e5	2.84e5	2.30e5	16675	inactive
49	CG30034 (retired record)	DRSC05288	2.73e5	2.85e5	3.25e5	4.08e5	25435	inactive
50	CG7295	DRSC00699	1.07e5	1.06e5	1.06e5	58765	8782	inactive
51	Lcch3	DRSC20257	1.72e5	1.64e5	1.95e5	1.52e5	10255	inactive
52	CG15602	DRSC19671	82945	85300	1.15e5	65535	11365	inactive
53	CG32639	DRSC18972	90200	81285	1.38e5	94690	7265	inactive
54	beat-IV	DRSC14195	1.63e5	1.61e5	2.03e5	2.20e5	14455	inactive
55	beat-IV	DRSC14673	2.33e5	2.00e5	3.08e5	3.51e5	19730	inactive
56	CG6277	DRSC16008	84090	1.01e5	1.98e5	2.01e5	8865	inactive
57	CG14187	DRSC10186	1.65e5	1.19e5	1.23e5	1.29e5	11805	inactive
58	CG34242	DRSC09185	2.21e5	2.24e5	1.85e5	2.17e5	13890	inactive
59	robls54B	DRSC05660	1.33e5	1.04e5	1.52e5	1.42e5	7570	inactive
60	Inx2	DRSC18783	1.84e5	2.10e5	2.67e5	2.16e5	15070	inactive
61	prg	DRSC03324	1.47e5	2.00e5	1.25e5	1.83e5	23170	inactive
62	shps	DRSC14614	1.39e5	1.11e5	1.45e5	1.60e5	10732	inactive
63	ClpP	DRSC02806	1.70e5	1.88e5	1.70e5	1.90e5	14640	inactive
64	tws	DRSC12767	1.48e5	1.31e5	1.24e5	1.17e5	10415	inactive
65	tws	DRSC17092	89160	92120	1.23e5	93955	8038	inactive
